Measured values reported in PubChem BioAssay AID1671190 (National Center for Advancing Translational Sciences (NCATS), 2021).
In all, about 580,000 compounds went through this assay and about 6,100 (1.1%) were called active. The inconclusive results got no clear call from the source; some entries with a clear call stand among them for comparison. The call rests on the fitted dose curve; in most records, active means well fitted inhibition curve with a large enough effect; inconclusive means small, poorly fitted or top-dose-only effect, or another doubt; inactive means no such curve, though single readings can be large or run the other way. Where the call is inconclusive, the potency comes from a doubtful curve fit.

By UniProt entry, the sequences of proteins in these tests, tags left out. Where a name states a change or a piece, a line headed by the entry shows the natural chain unless it says otherwise.
UniProt P18054: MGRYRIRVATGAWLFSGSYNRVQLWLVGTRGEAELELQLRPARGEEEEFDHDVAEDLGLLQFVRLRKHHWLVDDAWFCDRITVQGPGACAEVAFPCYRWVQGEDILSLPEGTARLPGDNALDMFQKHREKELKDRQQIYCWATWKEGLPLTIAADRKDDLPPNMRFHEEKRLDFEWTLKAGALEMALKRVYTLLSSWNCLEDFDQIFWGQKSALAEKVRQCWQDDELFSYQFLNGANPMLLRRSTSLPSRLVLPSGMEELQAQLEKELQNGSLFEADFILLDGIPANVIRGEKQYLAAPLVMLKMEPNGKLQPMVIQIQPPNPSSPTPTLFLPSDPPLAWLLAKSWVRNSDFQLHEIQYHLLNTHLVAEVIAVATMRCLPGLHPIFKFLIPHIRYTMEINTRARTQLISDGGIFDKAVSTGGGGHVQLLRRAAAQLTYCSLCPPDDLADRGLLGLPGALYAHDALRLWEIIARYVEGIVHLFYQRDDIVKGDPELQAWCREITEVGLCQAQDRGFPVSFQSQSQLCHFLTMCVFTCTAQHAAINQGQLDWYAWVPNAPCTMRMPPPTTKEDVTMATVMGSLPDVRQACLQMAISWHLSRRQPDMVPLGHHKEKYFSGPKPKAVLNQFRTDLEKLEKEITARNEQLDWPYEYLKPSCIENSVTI

Target: Polyunsaturated fatty acid lipoxygenase ALOX12 (Homo sapiens) (UniProt P18054)
Test: Primary qHTS assay for inhibitors of human arachidonate 12S-lipoxygenase (ALOX12): Round 2
Details: purified 12hLO, xylenol orange hydroperoxide absorbance; series mostly up to 108 µM
How it was run: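 Purified human 12hLO at 150 nM in 25 mM Hepes, 0.01% Triton X-100, pH 7.0, preincubated 15 min at room temperature with compound. Reaction started with 40 uM arachidonic acid, 30 min at room temperature. Hydroperoxide measured by Fe-xylenol orange, 573/405 nm absorbance ratio.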
Potency means the concentration at half of the fitted maximal effect.

| SMILES | Potency |
| --- | --- |
| COc1ccc(-c2cc(C(=O)Nc3ccc(O)cc3)c3ccccc3n2)cc1OC | inconclusive: 44.7 µM [inhibitor, partial curve] |
| Cc1ccc(OCC(=O)Nc2ccc(S(=O)(=O)Nc3cc(C)nc(C)n3)cc2)c(Br)c1 | inconclusive: 56.2 µM [inhibitor, partial curve, poor fit] |
| O=C(N/N=C/c1c(Cl)nc2ccccn2c1=O)c1cccnc1 | active: 3.16 µM |
| O=C(c1cccnc1)N1CCc2cc(NS(=O)(=O)c3ccccc3)ccc21 | inactive |
| COc1cccc(OC)c1C(=O)Nc1nc2ccc(S(C)(=O)=O)cc2s1 | inconclusive: 50.1 µM [inhibitor, partial curve, poor fit] |
| CC(=O)NCC(=O)N(c1ccc(C)cc1)C1(C(=O)Nc2ccc(C)cc2)CCCCC1 | inconclusive: 141 µM [inhibitor, partial curve, poor fit] |
| Cc1ccccc1CN1CCN(C(=O)c2ccco2)CC1 | inactive |
| CCOC1=C2[C@@H](CN(S(=O)(=O)c3ccc(C)cc3)[C@H]2c2cccc3ccccc23)[C@H]2C(=O)NC(=O)[C@H]2C1 | inconclusive: 39.8 µM [inhibitor, partial curve, poor fit] |
| COc1ccc(S(=O)(=O)NCCOc2ccccc2)cc1-n1cnnn1 | inconclusive: 56.2 µM [inhibitor, partial curve, poor fit] |
| Nc1ccccc1CN1CCCC2(Cc3ccccc3CNC2=O)C1 (stereo not given) | inconclusive: 2.24 µM [inhibitor, full curve, poor fit] |
| CCCC(=O)Nc1ccc(-c2nc3ccc(C)cc3o2)cc1 | inactive |
| CCOC(=O)c1cc(-c2ccccc2C)nn1Cc1cc(CC)no1 | active: 7.94 µM |
| CC1CCN(C(=O)CSc2nnc(-c3ccccc3Cl)n2C2CCCC2)CC1 | inconclusive: 56.2 µM [inhibitor, partial curve, poor fit] |
| O=C(CCCOc1ccccc1)NC(=S)Nc1ccccc1 | inconclusive: 50.1 µM [inhibitor, partial curve, poor fit] |
| Fc1ccc(NC(=S)Nc2cc(-c3ccccc3)[nH]n2)cc1Cl | active: 28.2 µM |
| CCCN(CC(=O)N(C)C)C(=O)c1cc(-c2ccco2)nc2ccccc12 | inconclusive: 25.1 µM [inhibitor, partial curve, poor fit] |
| CCN(CC)S(=O)(=O)N(C)Cc1ccc2c(c1)OCCO2 | inactive |
| O=S(=O)(c1ccc(-c2csc(Nc3cccc4ccccc34)n2)cc1)N1CCOCC1 | inconclusive: 0.891 µM [inhibitor, full curve, poor fit] |
| COc1ccc(CN(CCC(c2ccc(F)cc2)C2CCOC(C)(C)C2)C(=O)c2ccco2)cc1 (stereo not given) | inconclusive: 112 µM [inhibitor, single point] |
| Cc1ccc(-c2cc(C(=O)Oc3ccccc3)c3cccc(C)c3n2)cc1 | inconclusive: 89.1 µM [inhibitor, single point] |
| Cc1[nH]ncc1C(=O)N1CCOC(Cc2ccc(F)cc2)C1 (stereo not given) | inactive |
| Cc1ccc([N+](=O)[O-])cc1S(=O)(=O)Nc1cccc(-c2ccc(N3CCOCC3)nn2)c1 | inconclusive: 39.8 µM [inhibitor, partial curve, poor fit] |

| SMILES | Potency |
| --- | --- |
| CCOC(=O)c1c(C)n(C)c2ccc(OC)c(NS(=O)(=O)CC)c12 | inconclusive: 100 µM [inhibitor, partial curve, poor fit] |
| N#CCCn1cc(/C=N/O)c(-c2ccc(-c3ccccc3)cc2)n1 | inactive |
| CCOc1cccc(-c2nnc3sc(C4CCCCC4)nn23)c1 | inactive |
| Cc1nc(C(=O)NCC(=O)c2ccccc2)c(C(F)(F)F)o1 | inconclusive: 100 µM [inhibitor, single point] |
| CCOc1ccc(C2Cn3nnc(-c4nc(-c5ccc(OC)cc5)no4)c3CO2)cc1 (stereo not given) | inactive |
| COc1cccc(-c2cc(C(=O)N3CCCC3)c3ccccc3n2)c1 | inconclusive: 44.7 µM [inhibitor, partial curve, poor fit] |
| O=C1NC[C@H](Cc2ccccc2)N(C[C@@H]2CCCN2C[C@H](Cc2ccc(O)cc2)N2C[C@H](Cc3ccccc3)N(CC3CCCCCC3)C(=O)C2=O)C1=O | inconclusive: 126 µM [inhibitor, single point] |
| CN(Cc1ccccc1)c1oc(-c2ccco2)nc1C#N | inactive |
| O=C(c1ccsc1)N1CCCC(CN2CCCC2)CC1 (stereo not given) | inactive |
| COc1cc(SC)ccc1C(=O)N(Cc1ccccc1)c1ccccn1 | inconclusive: 89.1 µM [inhibitor, single point] |
| CC(C)(C)c1ccc(C#C[C@@H]2C=C[C@H](O)[C@@H](COC(=O)Nc3ccccc3)O2)cc1 | inconclusive: 63.1 µM [inhibitor, partial curve, poor fit] |
| COc1ccc(-c2cc(C(F)(F)F)nc(S(=O)(=O)CCC(=O)N3CCOCC3)n2)cc1 | inactive |
| Cc1cc(N2CCN(C(=O)c3ccco3)CC2)n2ncc(-c3ccccc3)c2n1 | inconclusive: 56.2 µM [inhibitor, partial curve, poor fit] |
| O=C1CC(c2ccccc2)Cc2[nH]c(=O)c(-c3nc(-c4ccc(F)cc4)cs3)cc21 (stereo not given) | inconclusive: 56.2 µM [inhibitor, partial curve, poor fit] |
| C=CCN(CC=C)CCOc1ccccc1F | inconclusive: 5.62 µM [inhibitor, full curve, poor fit] |
| O=C(NCc1ccccc1)C(c1cc2ccccc2o1)n1c(=O)c(-c2ccco2)nc2ccccc21 (stereo not given) | inconclusive: 6.31 µM [inhibitor, full curve, poor fit] |
| Cc1ccc(CNC(=O)CC2=C3CCCCC3N(Cc3ccc(F)cc3)C2=O)cc1 (stereo not given) | inconclusive: 20 µM [inhibitor, partial curve, poor fit] |
| O=C(NCC(O)c1ccc(F)cc1F)c1cnccn1 (stereo not given) | inconclusive: 5.01 µM [inhibitor, full curve, poor fit] |
| CCN(CC)CCNC(=O)c1ccc(NC(=O)c2cc(S(=O)(=O)N3CCCCC3)ccc2N2CCOCC2)cc1 | inconclusive: 44.7 µM [inhibitor, partial curve, poor fit] |
| Cc1ccccc1-c1nc(CS(=O)CC(=O)NCCc2ccc(Cl)cc2)c(C)o1 (stereo not given) | inconclusive: 112 µM [inhibitor, partial curve, poor fit] |
| Cc1ccc(N=Cc2ccccc2[N+](=O)[O-])c(C)c1 | inconclusive: 2 µM [inhibitor, full curve, poor fit] |
| COC/C=C/C1=CC2=CC(=O)C(C)(OC(=O)c3cnc4ccccc4n3)C(=O)C2=CN1C(CO)CO (stereo not given) | active: 7.08 µM |

| SMILES | Potency |
| --- | --- |
| C(=Nc1ccccc1-c1ccccc1N=Cc1ccc2ccccc2c1)c1ccc2ccccc2c1 | inactive |
| COC(=O)c1nn(-c2ccccc2)c(Sc2ccc(Cl)cc2)c1/C=N/O | inconclusive: 89.1 µM [inhibitor, single point] |
| CCOc1ccc(C2c3c(oc4ccc(C)cc4c3=O)C(=O)N2c2nc(C)c(C)s2)cc1OC (stereo not given) | inconclusive: 112 µM [inhibitor, partial curve, poor fit] |
| C=CCn1c(SCC(=O)NCCOC)nc2scc(-c3ccco3)c2c1=O | inconclusive: 15.8 µM [inhibitor, partial curve, poor fit] |
| O=C(Nc1ccc(S(=O)(=O)Nc2ncccn2)cc1)C1=NN(c2ccccc2)C(=O)CC1 | inconclusive: 35.5 µM [inhibitor, partial curve, poor fit] |
| CCOC(=O)c1cnc2ccc(OCC)cc2c1N1CCN(c2cccc(Cl)c2)CC1 | inconclusive: 50.1 µM [inhibitor, partial curve, poor fit] |
| Cc1ccnc(SCc2cc(=O)c(OC(=O)c3cc([N+](=O)[O-])ccc3Cl)co2)n1 | inconclusive: 100 µM [inhibitor, partial curve, poor fit] |
| O=C(NCCc1ccc(Cl)cc1)c1cc2ccccc2oc1=O | inconclusive: 50.1 µM [inhibitor, partial curve, poor fit] |
| COc1ccc(Cc2noc(-c3ccc(OC)c(OC)c3)n2)cc1OC | inactive |
| CC(=O)Nc1ccc(CC(=O)NCCC(c2ccccc2)c2ccccc2)cc1 | inactive |
| COc1ccc(OC)c(S(=O)(=O)NCCc2ccccc2)c1 | inactive |
| Cc1cc(C)c(OCCNCc2ccccc2)c(C)c1 | inconclusive: 0.794 µM [inhibitor, full curve] |
| CCCOc1ccccc1C(=O)Nc1nonc1CC | inactive |
| Cc1ccc2sc(N(CCCN(C)C)C(=O)c3ccc(S(=O)(=O)N(C)C4CCCCC4)cc3)nc2c1C | inconclusive: 25.1 µM [inhibitor, full curve, poor fit] |
| Cc1ccccc1Nc1nc(N)nc(COC(=O)c2cccc(S(=O)(=O)N(C)C)c2)n1 | inactive |
| CCS(=O)(=O)N1CCN(C(=O)COc2ccc(-c3ccccc3)cc2)CC1 | inconclusive: 8.91 µM [inhibitor, full curve, poor fit] |
| COc1ccccc1-c1cn[nH]c(=S)n1 | inconclusive: 7.94 µM [inhibitor, full curve, poor fit] |
| CC(C)NC(=O)Nc1cccc(C(=O)Nc2cccc(Cl)c2)c1 | inconclusive: 112 µM [inhibitor, single point] |
| Cc1ccc(C(NC(=O)N2CCN(C)CC2)C(Cl)(Cl)Cl)cc1F (stereo not given) | inactive |
| CCC(C)(C)NCC(=O)Nc1sccc1C#N | inconclusive: 25.1 µM [inhibitor, partial curve] |
| c1ccc(-c2nnc3sc(-c4csc5c4CCCC5)nn23)cc1 | inconclusive: 39.8 µM [inhibitor, partial curve, poor fit] |

3 successive records from above:

| SMILES | Potency |
| --- | --- |
| CC(C)NC(=O)Nc1cccc(C(=O)Nc2cccc(Cl)c2)c1 | inconclusive: 112 µM [inhibitor, single point] |
| Cc1ccc(C(NC(=O)N2CCN(C)CC2)C(Cl)(Cl)Cl)cc1F (stereo not given) | inactive |
| CCC(C)(C)NCC(=O)Nc1sccc1C#N | inconclusive: 25.1 µM [inhibitor, partial curve] |
